## Cleaved PARP after 72 h of treatment

Values as published with doi:10.1371/journal.pone.0140310, rounded.

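Human melanoma cell lines in 1,536-well plates were treated with two drugs together for 72 h, then fixed, stained and imaged. The read-out is the fraction of cleaved-PARP-positive nuclei, in % of that fraction in the DMSO control; 200 means twice the control level of this apoptosis marker. Concentrations were fixed for each drug; these are the higher of two levels. The file gives one value for each pair and line, without errors, so small differences may be noise. The marker varies much from line to line, for technical or biological reasons.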
An unselected part of the screen is shown.

All values are for the listed drug together with tamatinib (2 µM): COc1cc(Nc2ncc(F)c(Nc3ccc4c(n3)NC(=O)C(C)(C)O4)n2)cc(OC)c1OC

Drugs:
OSU-03012, 5 µM: NCC(=O)Nc1ccc(-n2nc(C(F)(F)F)cc2-c2ccc3c(ccc4ccccc43)c2)cc1
palbociclib, 0.2 µM: CC(=O)c1c(C)c2cnc(Nc3ccc(N4CCNCC4)cn3)nc2n(C2CCCC2)c1=O
sunitinib, 2 µM: CCN(CC)CCNC(=O)c1c(C)[nH]c(/C=C2\C(=O)Nc3ccc(F)cc32)c1C
temozolomide, 10 µM: Cn1nnc2c(C(N)=O)ncn2c1=O
BMS-536924, 1 µM: Cc1cc(N2CCOCC2)cc2[nH]c(-c3c(NC[C@@H](O)c4cccc(Cl)c4)cc[nH]c3=O)nc12
CP-690550, 5 µM: C[C@@H]1CCN(C(=O)CC#N)C[C@@H]1N(C)c1ncnc2[nH]ccc12
PF-04217903, 5 µM: OCCn1cc(-c2cnc3nnn(Cc4ccc5ncccc5c4)c3n2)cn1
tanespimycin, 0.01 µM: C=CCNC1=C2C[C@@H](C)C[C@H](OC)[C@H](O)[C@@H](C)/C=C(\C)[C@H](OC(N)=O)[C@@H](OC)/C=C\C=C(/C)C(=O)NC(=CC1=O)C2=O
VX-702, 2 µM: NC(=O)c1ccc(N(C(N)=O)c2c(F)cccc2F)nc1-c1ccc(F)cc1F
PD173074, 0.5 µM: CCN(CC)CCCCNc1ncc2cc(-c3cc(OC)cc(OC)c3)c(NC(=O)NC(C)(C)C)nc2n1
BI-D1870, 1 µM: CC(C)CCN1c2nc(Nc3cc(F)c(O)c(F)c3)ncc2N(C)C(=O)C1C (stereo not shown)
embelin, 6 µM: CCCCCCCCCCCC1=C(O)C(=O)C=C(O)C1=O
XAV939, 10 µM: Oc1nc(-c2ccc(C(F)(F)F)cc2)nc2c1CSCC2
KU-55933, 5 µM: O=c1cc(-c2cccc3c2Sc2ccccc2S3)oc(N2CCOCC2)c1
CHIR-265, 0.4 µM: Cn1c(Nc2ccc(C(F)(F)F)cc2)nc2cc(Oc3ccnc(-c4ncc(C(F)(F)F)[nH]4)c3)ccc21
etoposide, 0.1 µM: COc1cc([C@@H]2c3cc4c(cc3[C@@H](O[C@@H]3O[C@@H]5CO[C@@H](C)O[C@H]5[C@H](O)[C@H]3O)[C@H]3COC(=O)[C@H]23)OCO4)cc(OC)c1O
vismodegib, 5 µM: CS(=O)(=O)c1ccc(C(=O)Nc2ccc(Cl)c(-c3ccccn3)c2)c(Cl)c1
FK866, 0.05 µM: O=C(/C=C/c1cccnc1)NCCCCC1CCN(C(=O)c2ccccc2)CC1
lenalidomide, 5 µM: Nc1cccc2c1CN(C1CCC(=O)NC1=O)C2=O (stereo not shown)
nilutamide, 5 µM: CC1(C)NC(=O)N(c2ccc([N+](=O)[O-])c(C(F)(F)F)c2)C1=O
sorafenib, 2 µM: CNC(=O)c1cc(Oc2ccc(NC(=O)Nc3ccc(Cl)c(C(F)(F)F)c3)cc2)ccn1
PLX4720, 0.4 µM: CCCS(=O)(=O)Nc1ccc(F)c(C(=O)c2c[nH]c3ncc(Cl)cc23)c1F
dorsomorphin, 2 µM: c1cc(-c2cnn3cc(-c4ccc(OCCN5CCCCC5)cc4)cnc23)ccn1
lestaurtinib, 0.02 µM: C[C@]12O[C@H](C[C@]1(O)CO)n1c3ccccc3c3c4c(c5c6ccccc6n2c5c31)CNC4=O

Partner | C32 | LOX IMVI | WM451Lu | SK-MEL-28 | RVH-421 | WM115
PF-04217903 | 579 | 253 | 422 | 66.7 | 43.6 | 229
BMS-536924 | 656 | 479 | 120 | 61.8 | 47.5 | 243
temozolomide | 179 | 636 | 61.9 | 169 | 105 | 56.0
PD173074 | 107 | 255 | 192 | 58.9 | 234 | 62.4
KU-55933 | 178 | 165 | 164 | 46.6 | 45.6 | 756
sorafenib | 204 | 274 | 30.3 | 125 | 90.0 | 201
tanespimycin | 1860 | 1240 | 251 | 435 | 52.9 | 9860
CP-690550 | 273 | 256 | 390 | 156 | 101 | 131
dorsomorphin | 148 | 284 | 66.8 | 160 | 213 | 72.8
palbociclib | 120 | 124 | 67.8 | 85.6 | 137 | 251
vismodegib | 87.2 | 427 | 249 | 248 | 113 | 160
etoposide | 132 | 191 | 148 | 80.1 | 122 | 112
BI-D1870 | 119 | 189 | 457 | 65.9 | 126 | 193
sunitinib | 258 | 139 | 546 | 369 | 189 | 111
lestaurtinib | 125 | 360 | 30.0 | 95.0 | 100 | 81.9
FK866 | 118 | 199 | 46.3 | 151 | 415 | 73.2
OSU-03012 | 148 | 412 | 445 | 449 | 135 | 99.4
embelin | 92.8 | 109 | 73.0 | 125 | 35.8 | 130
VX-702 | 63.3 | 227 | 222 | 216 | 101 | 216
XAV939 | 94.2 | 123 | 154 | 216 | 102 | 114
lenalidomide | 315 | 387 | 105 | 63.9 | 86.9 | 353
PLX4720 | 670 | 240 | 466 | 61.7 | 1250 | 187
nilutamide | 136 | 213 | 172 | 104 | 183 | 110
CHIR-265 | 151 | 311 | 59.7 | 328 | 43.4 | 140